Reference: PubChem BioAssay AID1259254 (NCATS, 2017)
Assay: 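Finding genes that stop cells copying their DNA twice in one cycle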 (primary screen). System: human HCT116 colorectal cancer cells. Reagent: single siRNA against human genes. Time to read-out: 3 days. Detection: 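Nuclei stained with Hoechst and imaged; cell-cycle phase assigned by DNA content; G2 share scaled per plate, non-targeting siRNA 0%, GMNN siRNA 100%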. Reading the numbers: G2 robust z-score and G2 cells, % of GMNN control: higher = more G2 cells, more excess DNA replication; raw share of cells in G2: higher = larger share of cells with G2 DNA content. Rule for the call: 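Active siRNAs have a G2 robust z of 5 or more median absolute deviations over the median, which in these data means about 38% or higher of GMNN control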.
Here is a random part of about 59,000 reagents tested. In the full data, about 1,550 (2.6%) were called active. 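G2 share is only a proxy for re-replication; each gene was hit by three separate siRNAs, and active genes were retested.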 Raw values are not corrected between plates. Reagents against one gene are numbered here. Not given: the amount of reagent.

The opening 3 records, to show the layout:
| gene | siRNA no. | G2 robust z-score | G2 cells, % of GMNN control | raw share of cells in G2 (%) | call |
| --- | --- | --- | --- | --- | --- |
| POLQ | 1 | 0.15 | 4.02 | 5.14 | inactive |
| POLQ | 2 | -0.839 | -2.94 | 4.42 | inactive |
| POLQ | 3 | -0.552 | -0.917 | 6.12 | inactive |

Results, from the start:
| gene | siRNA no. | G2 robust z-score | G2 cells, % of GMNN control | raw share of cells in G2 (%) | call |
| --- | --- | --- | --- | --- | --- |
| POLQ | 1 | 0.15 | 4.02 | 5.14 | inactive |
| POLQ | 2 | -0.839 | -2.94 | 4.42 | inactive |
| POLQ | 3 | -0.552 | -0.917 | 6.12 | inactive |
| SFR1P2 | 1 | 0.15 | 4.02 | 5.01 | inactive |
| SFR1P2 | 2 | -0.233 | 1.33 | 4.19 | inactive |
| SFR1P2 | 3 | -0.508 | -0.605 | 3.25 | inactive |
| ZBTB26 | 1 | -0.72 | -2.1 | 2.05 | inactive |
| ZBTB26 | 2 | 0.498 | 6.47 | 8.83 | inactive |
| ZBTB26 | 3 | -0.552 | -0.918 | 3.34 | inactive |
| SERPINB13 | 1 | -0.384 | 0.269 | 4.88 | inactive |
| SERPINB13 | 2 | -1.03 | -4.27 | 3.02 | inactive |
| SERPINB13 | 3 | 0.419 | 5.92 | 5.28 | inactive |
| SAXO6 | 1 | 0.842 | 8.89 | 7.85 | inactive |
| SAXO6 | 2 | -0.763 | -2.4 | 3.31 | inactive |
| SAXO6 | 3 | -0.525 | -0.727 | 2.8 | inactive |
| EFHC2 | 1 | 2.07 | 17.5 | 11.7 | inactive |
| EFHC2 | 2 | 0.86 | 9.02 | 8.25 | inactive |
| EFHC2 | 3 | -1.6 | -8.31 | 0.105 | inactive |
| RNF144A | 1 | -0.603 | -1.28 | 4.72 | inactive |
| RNF144A | 2 | -1.14 | -5.06 | 1.47 | inactive |
| RNF144A | 3 | -0.157 | 1.86 | 5.51 | inactive |
| SLC24A3 | 1 | 1.98 | 16.9 | 12.6 | inactive |
| SLC24A3 | 2 | -0.347 | 0.524 | 4.53 | inactive |
| SLC24A3 | 3 | 0.0229 | 3.13 | 5.36 | inactive |
| CDKN1C | 1 | 2.32 | 19.3 | 11.8 | inactive |
| CDKN1C | 2 | 0.104 | 3.7 | 6.34 | inactive |
| CDKN1C | 3 | -0.0224 | 2.81 | 5.06 | inactive |
| TNIP2 | 1 | 0.381 | 5.65 | 7.04 | inactive |
| TNIP2 | 2 | -0.873 | -3.17 | 3.19 | inactive |
| TNIP2 | 3 | -0.515 | -0.654 | 2.52 | inactive |
| BICC1 | 1 | -0.795 | -2.63 | 4.34 | inactive |
| BICC1 | 2 | 1.64 | 14.5 | 9.44 | inactive |
| BICC1 | 3 | 1.57 | 14 | 9.97 | inactive |
| ZNF510 | 1 | 0.209 | 4.44 | 5 | inactive |
| ZNF510 | 2 | -1.16 | -5.17 | 3.68 | inactive |
| ZNF510 | 3 | -0.321 | 0.707 | 3.64 | inactive |
| DSPP | 1 | -0.262 | 1.12 | 5.83 | inactive |
| DSPP | 2 | -0.084 | 2.38 | 4.96 | inactive |
| DSPP | 3 | 1.38 | 12.7 | 8.49 | inactive |
| BDP1 | 1 | 5.61 | 42.4 | 19.6 | active |
| BDP1 | 2 | 3.03 | 24.3 | 14.5 | inactive |
| BDP1 | 3 | 4.27 | 33 | 20.9 | inactive |
| PEAK3 | 1 | -0.137 | 2 | 4.67 | inactive |
| PEAK3 | 2 | 4.64 | 35.6 | 18.8 | inactive |
| PEAK3 | 3 | 2.44 | 20.2 | 12.3 | inactive |
| NUP37 | 1 | -0.592 | -1.2 | 2.38 | inactive |
| NUP37 | 2 | -0.602 | -1.27 | 4.03 | inactive |
| NUP37 | 3 | 0.215 | 4.48 | 6.62 | inactive |
| ELOVL3 | 1 | -0.0434 | 2.66 | 5.16 | inactive |
| ELOVL3 | 2 | 1.19 | 11.3 | 8.98 | inactive |
| ELOVL3 | 3 | -0.949 | -3.71 | 3.89 | inactive |
| SLC30A4 | 1 | -0.61 | -1.33 | 3.77 | inactive |
| SLC30A4 | 2 | 1.39 | 12.8 | 8.68 | inactive |
| SLC30A4 | 3 | 1.4 | 12.8 | 11 | inactive |
| STX6 | 1 | -1.64 | -8.56 | 0.679 | inactive |
| STX6 | 2 | 0.406 | 5.82 | 8.58 | inactive |
| STX6 | 3 | 2.26 | 18.9 | 11.3 | inactive |
| KLK10 | 1 | -0.697 | -1.94 | 4.88 | inactive |
| KLK10 | 2 | 0.422 | 5.94 | 7.01 | inactive |
| KLK10 | 3 | -0.111 | 2.19 | 4.73 | inactive |
| KRTAP19-4 | 1 | 0.488 | 6.4 | 6.77 | inactive |
| KRTAP19-4 | 2 | 3.42 | 27.1 | 13.3 | inactive |
| KRTAP19-4 | 3 | 0.794 | 8.55 | 7 | inactive |
| MKNK1 | 1 | 0.614 | 7.28 | 7.85 | inactive |
| MKNK1 | 2 | -0.652 | -1.62 | 4.6 | inactive |
| MKNK1 | 3 | -0.347 | 0.524 | 3.85 | inactive |
| RALGDS | 1 | 1.48 | 13.4 | 9.58 | inactive |
| RALGDS | 2 | 0.468 | 6.26 | 7.07 | inactive |
| RALGDS | 3 | 8.26 | 61.1 | 24.5 | active |
